Measured values reported in patent US20250188082A1, “Use of Hypoxanthine Compound In Preparation of Drug For Treating Pulmonary Fibrosis” (Sichuan Yiasuo Pharmaceutical Technology Co., Ltd., priority 2022, published 2025).
Some results were stated once for a whole list of compounds, not compound by compound.

Tested on: bleomycin-induced pulmonary fibrosis model
Assay: Comparison with comparative drugs: bleomycin-induced model, hydroxyproline and TGF-β
Assay type: in vivo, C57BL/6 mice
Conditions: from hydroxyproline and TGF-β in bronchoalveolar lavage fluids and lung tissues; result in words

| Compound | pulmonary fibrosis resisting effects |
| --- | --- |
| CC(C)n1cnc2c(=O)[nH]cnc21 [Compound E-1] | obviously inferior |
| CC(C)n1cnc2[nH]cnc2c1=O [Compound E-2] | obviously inferior |
| CC(C)n1cnc2c(ncn2C(C)C)c1=O [Compound E-3] | obviously inferior |
| CC(C)n1cnc2c(=S)[nH]cnc21 [Compound E-4] | obviously inferior |
| CC(C)n1cnc2[nH]cnc2c1=S [Compound E-5] | obviously inferior |
| CC(C)n1cnc2c(=O)n(C)cnc21 [Compound E-6] | obviously inferior |
| CC(C)n1cnc2c(=N)[nH]cnc21 [Compound E-7] | obviously inferior |
| CC(C)n1cnc2[nH]cnc2c1=N [Compound E-8] | obviously inferior |
| CC(C)Oc1ncnc2c1ncn2C [Hypoxanthine analogue B, reference compound] | obviously inferior |
| COc1ncnc2c1ncn2C(C)C [Hypoxanthine analogue C, reference compound] | obviously inferior |
| CC(C)n1cnc2c(ncn2C(C)C)c1=S [Hypoxanthine analogue D] | obviously inferior |
| COC(=O)c1ccc2c(c1)NC(=O)/C2=C(\Nc1ccc(N(C)C(=O)CN2CCN(C)CC2)cc1)c1ccccc1 [Nintedanib, reference compound] | obviously inferior |
